Paper PMC7819943, “Rice protein-binding microarrays: a tool to detect cis-acting elements near promoter regions in rice”
Some of the results follow.

Each sequence was assayed against T1, OsSMF1 (Oryza sativa, UniProt Q6ZLB0 1-436) (assay: protein-binding microarray (RPBM); PBS, 2% BSA, 51.3 ng/ul salmon testes DNA, 50 uM zinc acetate, 200 nM TF, 25 C, 1 h; high values mean tight binding). Settings: protein: recombinant; tags: N-terminal polyhistidine and DsRed monomer fusion (pET32a); chain copies: 2; label: CyDye5-dUTP incorporated in the synthesized complementary strand; 3' TTTTT single-stranded linker to array surface; dsDNA, one strand shown.
T1 sequence: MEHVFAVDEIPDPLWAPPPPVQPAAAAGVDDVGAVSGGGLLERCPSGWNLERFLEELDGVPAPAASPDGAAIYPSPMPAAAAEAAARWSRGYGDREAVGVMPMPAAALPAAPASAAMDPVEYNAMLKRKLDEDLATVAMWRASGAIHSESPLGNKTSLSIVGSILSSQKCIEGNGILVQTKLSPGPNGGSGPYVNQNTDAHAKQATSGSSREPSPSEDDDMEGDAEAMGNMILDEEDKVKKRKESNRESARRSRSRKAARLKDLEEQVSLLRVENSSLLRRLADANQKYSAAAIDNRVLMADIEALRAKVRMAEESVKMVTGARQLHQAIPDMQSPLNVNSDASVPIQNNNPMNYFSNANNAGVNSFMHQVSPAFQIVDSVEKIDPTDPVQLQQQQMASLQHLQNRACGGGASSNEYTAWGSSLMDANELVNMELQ
Summary of the method: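 An Axon 4000B scanner gave the binding signal as per-feature fluorescence intensity in arbitrary units. This followed washing of a custom Agilent array that had been incubated for 1 h at 25 °C with 200 nM protein in PBS, 2% BSA, salmon testes DNA and 50 µM zinc acetate. The proteins were transcription factors fused at the N-terminus to polyhistidine and DsRed, expressed in E. coli BL21-CodonPlus and purified on Ni–NTA.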
In the case of “GGAGAGACTCAGAGAGGAGGCGTGTTGGTTAGCTCATTGGCGGAGTCACCTAGTGCAG”, the binding signal is reported as 4190 fluorescence intensity (a.u.).
With “AGGGAATTTGAAGGAGGGGCCTGGAGGAGGAGGAGGAGGCCGGAGTCACCTAGTGCAG” the binding signal was 3420 fluorescence intensity (a.u.).
With “TGCACTTGCATATTTGCTGCGTGGCTTGCTGAGTATGTCACGGAGTCACCTAGTGCAG” the binding signal was 5020 fluorescence intensity (a.u.).
“AGTGCGTGCAATAATAACTAGGATGTAGGAGTACTACTCACGGAGTCACCTAGTGCAG” was tested, and the binding signal was 3240 fluorescence intensity (a.u.).
For “GTTCGAGGTGCTCGCCGCGTCAACCATCCCGAGGATGTACCGGAGTCACCTAGTGCAG”, the binding signal was 3280 fluorescence intensity (a.u.).
With “CGACTTCGTTTTATGACACGTGGGCCCGCAGAAGGAGAACCGGAGTCACCTAGTGCAG” the binding signal was 9040 fluorescence intensity (a.u.).
In the case of “TATTACAAATATTGTGAATAATTGCTCTTGTGCTAAGAGACGGAGTCACCTAGTGCAG”, the binding signal is reported as 32100 fluorescence intensity (a.u.).
For “ACGTGCGAGCTGCGTGGAGAGAGGATGATGTGTGAGGAAGCGGAGTCACCTAGTGCAG”, the binding signal was 5910 fluorescence intensity (a.u.).
For “AGGGACAAGAGAGTACAGACAGTCAACTTGCGTGGCACAACGGAGTCACCTAGTGCAG”, the binding signal was 4860 fluorescence intensity (a.u.).
In the case of “ATGAGACTAATCTGATGTGTAAAACTGCTCACTTTCCGCTCGGAGTCACCTAGTGCAG”, the binding signal is reported as 5500 fluorescence intensity (a.u.).
In the case of “CAAACCGTGATGGCACGCCACGTCAACGCTTTGACCGCCACGGAGTCACCTAGTGCAG”, the binding signal is reported as 25400 fluorescence intensity (a.u.).
With “CTCCACGTGACGCAACGCGATCCCTTCTCTTCCCCATTTGCGGAGTCACCTAGTGCAG” the binding signal was 5380 fluorescence intensity (a.u.).
For “CTCTCCTCGAGTCTCCTCTCCACCCTGGCAGTGTTATTGTCGGAGTCACCTAGTGCAG”, the binding signal was 4900 fluorescence intensity (a.u.).
For “GGAGCTCTCAGACACCAACTTACCGTCGTTCCAAGCCTTGCGGAGTCACCTAGTGCAG”, the binding signal was 3450 fluorescence intensity (a.u.).
With “TGTCAGTATGTGTGTGACGTCGCATGGCAGCTGTGTTTGCCGGAGTCACCTAGTGCAG” the binding signal was 4610 fluorescence intensity (a.u.).
For “ATATATGGGGAAATTCAATTCATTACACACCTCAAGGATTCGGAGTCACCTAGTGCAG”, the binding signal was 3370 fluorescence intensity (a.u.).
“GTGGATGTATATCCGTGTGGTCGTGGCGAATTTGTTCATTCGGAGTCACCTAGTGCAG” was tested, and the binding signal was 3170 fluorescence intensity (a.u.).
“GGAATGCAAGAGATTCAGAGAAACCTTACGCTTACGCGTGCGGAGTCACCTAGTGCAG” was tested, and the binding signal was 3830 fluorescence intensity (a.u.).
“TATATAGCCATAGCTGGCTGCAAGCCTATTGCTGCACCCTCGGAGTCACCTAGTGCAG” was tested, and the binding signal was 3330 fluorescence intensity (a.u.).
In the case of “AGGCTATTTCCCACGTTCCCGCCCCGTTGGCCAAATCTCTCGGAGTCACCTAGTGCAG”, the binding signal is reported as 4310 fluorescence intensity (a.u.).
With “TAGGATGTACATATGTGATGGGTGATGATGTAACTTAAATCGGAGTCACCTAGTGCAG” the binding signal was 4150 fluorescence intensity (a.u.).
“CTCTGCACAAGCCCACCTGGCATGGCGATTCATGGTGTGTCGGAGTCACCTAGTGCAG” was tested, and the binding signal was 3760 fluorescence intensity (a.u.).
In the case of “TTGGCATCTGGTGTGTCATCGTAATCTTTATTTACTTGTCCGGAGTCACCTAGTGCAG”, the binding signal is reported as 5850 fluorescence intensity (a.u.).
For “GCCGACCAACTTTTGCCGGTCACGTGTACCAGAGAGAGGTCGGAGTCACCTAGTGCAG”, the binding signal was 4590 fluorescence intensity (a.u.).
For “CTAAATCCAGTTTGATAGTGGAGTGTGCTGATGTCAAAGTCGGAGTCACCTAGTGCAG”, the binding signal was 4270 fluorescence intensity (a.u.).
In the case of “GCCAGATGCAAAGAGCGCTACTGTCAGATGTGAAGGGGAGCGGAGTCACCTAGTGCAG”, the binding signal is reported as 28200 fluorescence intensity (a.u.).
With “GGCGGCTCATCATCGGCTTTCATCGCCTCGCCTCTTCGTTCGGAGTCACCTAGTGCAG” the binding signal was 3320 fluorescence intensity (a.u.).
For “AGGTTGCAGCGCACGCGACGCGTCCCTCTCCGTGCTGCCGCGGAGTCACCTAGTGCAG”, the binding signal was 3230 fluorescence intensity (a.u.).
For “GTCAAGTGCCTTCATTCCTTGAGTTTTGCTCGAAAAGAATCGGAGTCACCTAGTGCAG”, the binding signal was 15500 fluorescence intensity (a.u.).
With “AGCACGCCACGTGGCCAGCTAGACATGCGAAATGTCCGTCCGGAGTCACCTAGTGCAG” the binding signal was 16400 fluorescence intensity (a.u.).
For “TGCAAATTGTGCTTTTCTATTCTGTTGTGTCTTCTGCTTTCGGAGTCACCTAGTGCAG”, the binding signal was 40700 fluorescence intensity (a.u.).
For “GCTAACTCCGTGTGACCATGTTGCCTACGATTTCCCTGAACGGAGTCACCTAGTGCAG”, the binding signal was 3860 fluorescence intensity (a.u.).
With “TATACAAGCTTGGCGTGTGCGTCACTCGCACCCAGCTTGCCGGAGTCACCTAGTGCAG” the binding signal was 5300 fluorescence intensity (a.u.).
For “TCTTCCCCATGATTATGTCAGAGCTATCAATGCACAGATGCGGAGTCACCTAGTGCAG”, the binding signal was 3700 fluorescence intensity (a.u.).
For “ATTGTTTGGTTCCCACGTAAGTTGAGGCAGCCACACCACGCGGAGTCACCTAGTGCAG”, the binding signal was 4420 fluorescence intensity (a.u.).
“TGCACCACTCACCCTGCCACGCGCTATATATGGCCACCACCGGAGTCACCTAGTGCAG” was tested, and the binding signal was 3850 fluorescence intensity (a.u.).
With “GATCGTTCTTATCTGATCCAATAATGACGCGCCAATCGCTCGGAGTCACCTAGTGCAG” the binding signal was 5720 fluorescence intensity (a.u.).
With “CTTCAGCTGGTTCACCTGTTCAGTGACACATAATATTTTCCGGAGTCACCTAGTGCAG” the binding signal was 3220 fluorescence intensity (a.u.).
In the case of “ACACCAACAGTGTAGTTTTCTGATGTAGCCGCCGCCGTGGCGGAGTCACCTAGTGCAG”, the binding signal is reported as 4220 fluorescence intensity (a.u.).
With “AAATTCACTGCAAGTACTAATGCAGTGCAGCCGTACGAACCGGAGTCACCTAGTGCAG” the binding signal was 20600 fluorescence intensity (a.u.).
“CCCAATTCGAGGCGCGCGATTCGCTCGCTCGGTTTTCCATCGGAGTCACCTAGTGCAG” was tested, and the binding signal was 3360 fluorescence intensity (a.u.).
For “TTACGCTACGTGCGCCCCATCTGGGAGGGGTGCCACGTGGCGGAGTCACCTAGTGCAG”, the binding signal was 29400 fluorescence intensity (a.u.).
